PubChem BioAssay AID1259308 | NCATS, 2017
Aim: 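Knock-downs that increase output of a recombinant reporter protein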 (primary screen). Cells: human HEK293 embryonic kidney cells stably expressing firefly luciferase (HEK-CMV-Luc2-Hygro). Reagents: single siRNA against human genes, 0.8 pmol siRNA per well. Duration: 72 h. Read-out: 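Reporter luminescence and viable-cell signal on separate replicate plates, given as percent of non-targeting control and median/MAD z-scores, plus per-cell luciferase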. Direction: total luciferase, z-score: higher = more reporter protein produced. Active means: 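An siRNA counts as active if its total luciferase robust z-score exceeds 3; genes with two or more such siRNAs out of three were retested with fresh siRNAs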. Meaning of the calls: active = raised luciferase; inactive = no rise.
Here is an unselected part of about 59,000 deposited reagents. In the full data, about 1,510 (2.6%) got an active call. 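Calls use total luciferase alone and ignore viability, so some active siRNAs may act by altering cell number.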 Entries without a mark were called inactive. Further read-outs or replicates are left out here. No sequences are given here.

| gene | PubChem SID | total luciferase, z-score |
| --- | --- | --- |
| CCDC163 | SID160756515 | -0.63 |
| CCDC163 | SID160756516 | 0.0918 |
| CCDC163 | SID160756517 | 0.359 |
| LRRC7 | SID160746256 | -1.07 |
| LRRC7 | SID160746257 | -0.366 |
| LRRC7 | SID160746258 | -0.897 |
| ZXDA | SID160719346 | 1.53 |
| ZXDA | SID160719347 | -1.49 |
| ZXDA | SID160731901 | 0.666 |
| MRPL14 | SID160748146 | -0.282 |
| MRPL14 | SID160748149 | -1.26 |
| MRPL14 | SID160748150 | 0.108 |
| KRTAP4-5 | SID160753161 | 0.0442 |
| KRTAP4-5 | SID160753162 | -0.136 |
| KRTAP4-5 | SID160753163 | 2.68 |
| KCTD3 | SID160740149 | -0.661 |
| KCTD3 | SID160740150 | -0.925 |
| KCTD3 | SID160740151 | -0.289 |
| BANP | SID160742636 | 3.9 (active) |
| BANP | SID160742637 | 0.933 |
| BANP | SID160742638 | -1.27 |
| FAM226B | SID160771047 | -0.903 |
| FAM226B | SID160771048 | 0.307 |
| FAM226B | SID160771049 | 0.208 |
| FAM226B | SID160772808 | -0.26 |
| FAM226B | SID160772809 | 0.359 |
| FAM226B | SID160772811 | 0.576 |
| NEUROG2 | SID160731710 | -0.197 |
| NEUROG2 | SID160747353 | -0.0597 |
| NEUROG2 | SID160747354 | -1.02 |
| KHDRBS3 | SID160728974 | 1.2 |
| KHDRBS3 | SID160728975 | -0.885 |
| KHDRBS3 | SID160728977 | -1.23 |
| CACNB1 | SID160735425 | -2.09 |
| CACNB1 | SID160735435 | 0.0192 |
| CACNB1 | SID160735445 | 3.15 (active) |
| LCA5 | SID160760271 | -0.703 |
| LCA5 | SID160760272 | -0.312 |
| LCA5 | SID160760273 | -0.214 |
| TOR1B | SID160732909 | -0.0729 |
| TOR1B | SID160738782 | -2.3 |
| TOR1B | SID160738783 | -1.21 |
| RTKN | SID160716235 | 0.204 |
| RTKN | SID160716236 | -2.22 |
| RTKN | SID160733729 | 0.607 |
| TMCC3 | SID160746000 | 0.278 |
| TMCC3 | SID160746001 | -1.68 |
| TMCC3 | SID160746003 | -0.381 |
| KHDRBS2 | SID160730759 | 4.04 (active) |
| KHDRBS2 | SID160761076 | -1.43 |
| KHDRBS2 | SID160761077 | 1.82 |
| C15orf40 | SID160732392 | -0.527 |
| C15orf40 | SID160756065 | 0.196 |
| C15orf40 | SID160756066 | 0.471 |
| SLK | SID160722981 | -0.625 |
| SLK | SID160722982 | -0.258 |
| SLK | SID160722983 | 0.0431 |

Reagents above with an active call, once more:
| gene | PubChem SID | total luciferase, z-score |
| --- | --- | --- |
| BANP | SID160742636 | 3.9 (active) |
| CACNB1 | SID160735445 | 3.15 (active) |
| KHDRBS2 | SID160730759 | 4.04 (active) |
